Test results reported in patent US7932382B2, “Conformationally constrained Smac mimetics and the uses thereof” (The Regents of the University of Michigan, priority 2005, dated 2011).
Some of these results come from one statement about several compounds together.

Protein sequences, listed by entry. Tags and fused reporters are not part of them. Residues count along the entry.
UniProt P98170, 241-356: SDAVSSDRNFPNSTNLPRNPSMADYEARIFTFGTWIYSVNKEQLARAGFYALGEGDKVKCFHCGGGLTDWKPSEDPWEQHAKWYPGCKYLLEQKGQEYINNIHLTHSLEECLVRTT

Molecular target: human XIAP-BIR3 protein (residues 241-356) (Homo sapiens, UniProt P98170)

For `CC[C@H](N)C(=O)N[C@H]1CCC[C@H]2CC[C@@H](C(=O)NCc3ccccc3)N2C1=O` [Compound 33], the “binding affinity, fold more potent than the natural Smac AVPI peptide” value was “at least 10 fold”.
